Results are given in words; binding and its absence hold for the method and conditions named. Some binding calls cover weakened binding; strength is not graded here.

Sequences of proteins named here, by UniProt entry; tags and fusion partners are left off. A change or cut given only in a name is not applied to a line headed by its entry.
UniProt P08603: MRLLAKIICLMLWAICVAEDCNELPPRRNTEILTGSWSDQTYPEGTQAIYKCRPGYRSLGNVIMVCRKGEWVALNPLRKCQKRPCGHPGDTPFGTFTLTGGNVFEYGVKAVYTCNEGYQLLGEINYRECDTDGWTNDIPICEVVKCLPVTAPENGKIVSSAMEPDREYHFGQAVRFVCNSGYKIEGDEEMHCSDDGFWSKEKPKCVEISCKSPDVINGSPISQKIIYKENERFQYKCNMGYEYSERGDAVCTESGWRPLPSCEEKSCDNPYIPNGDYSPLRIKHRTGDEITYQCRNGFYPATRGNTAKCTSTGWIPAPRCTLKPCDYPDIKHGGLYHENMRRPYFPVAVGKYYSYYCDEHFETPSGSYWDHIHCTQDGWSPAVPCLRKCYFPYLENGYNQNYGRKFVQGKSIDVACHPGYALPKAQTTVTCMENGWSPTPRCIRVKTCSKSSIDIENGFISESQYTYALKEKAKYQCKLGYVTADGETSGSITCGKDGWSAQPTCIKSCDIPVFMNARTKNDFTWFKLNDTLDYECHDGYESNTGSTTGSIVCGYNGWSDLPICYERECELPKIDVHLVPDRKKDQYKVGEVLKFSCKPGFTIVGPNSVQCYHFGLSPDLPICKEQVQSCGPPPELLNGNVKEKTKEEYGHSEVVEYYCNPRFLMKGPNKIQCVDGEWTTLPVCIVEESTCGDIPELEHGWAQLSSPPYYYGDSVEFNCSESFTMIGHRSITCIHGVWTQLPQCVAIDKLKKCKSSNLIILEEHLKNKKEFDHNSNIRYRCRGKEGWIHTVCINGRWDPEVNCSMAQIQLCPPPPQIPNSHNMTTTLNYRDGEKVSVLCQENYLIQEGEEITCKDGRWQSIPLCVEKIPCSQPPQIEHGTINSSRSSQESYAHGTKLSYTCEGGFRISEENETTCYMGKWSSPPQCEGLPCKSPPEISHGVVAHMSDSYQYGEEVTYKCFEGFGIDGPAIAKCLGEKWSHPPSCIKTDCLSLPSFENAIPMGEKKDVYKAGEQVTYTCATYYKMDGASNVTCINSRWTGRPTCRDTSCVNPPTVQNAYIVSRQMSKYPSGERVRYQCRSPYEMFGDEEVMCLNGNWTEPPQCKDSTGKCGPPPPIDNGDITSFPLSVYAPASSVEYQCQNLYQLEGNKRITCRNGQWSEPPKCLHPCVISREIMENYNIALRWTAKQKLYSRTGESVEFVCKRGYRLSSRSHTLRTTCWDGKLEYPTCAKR

These results are taken from patent publication US20250304666A1.

The target in assay [1] is reduced CFH (Homo sapiens (Human)) (UniProt P08603). Nature of the assay: ELISA on 0.2 ug/ml reduced CFH after mAb 70 C 1 hour. Background: ELISA stands for enzyme-linked immunosorbent assay.
Assay [2] shares this target. The assay is described as follows: ELISA on reduced CFH.

B1: ATL_0004715 (antibody, human IgG1, kappa, V domains shown)
VH: EVQLVESGGGVVQPGRSLRLSCAASGFTFSRYGMHWVRQAPGKGLEWVAVMSYDGSTKYYADSVKGRFAISRDNPKNTLFLQMNSLRPDDTAVYYCAKGGAAAAVMDVWGKGTTVTVSS
VL: DIVMTQSPDSLTVSLGERATISCKSSQRLLYSSNNKNYLAWYQQKPGQPPKLLMYWASTRESGVPDRFSGSGSGTDFSLTISSLQAEDVAVYYCQQYYNPPWTFGQGTKVEVKR
For the molecule B1, the binding entry in assay [1] and in assay [2] was “binds” each time.
